# PubChem BioAssay AID1508597 | Cure First | 2020
# Purpose: 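Genes whose silencing sensitises or protects ovarian cancer cells against rucaparib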 (primary screen)
# Cells: human ovarian carcinoma lines grown from tumours: OCI-P5x (papillary serous) and OCI-C5x (clear cell)
# Reagent: siRNA pool against human genes, 1.25 pmol siRNA per well
# Duration: 72 h or 96 h, depending on the cell culture
# Challenge: rucaparib 20 µM (about IC30) or vehicle, present until read-out
# Rucaparib or vehicle: Vehicle
# Cell line: OCI-P5x (serous)
# Measurement: 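ATP luminescence measured at 72 or 96 h according to the culture, then normalised and expressed as percent viability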
# Scale: viability, normalised: higher = more viable cells remaining
# Hit rule: 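a well counts as a hit if its normalised viability is under 80 percent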
# Calls: active = viability under 80%; inactive = viability 80% or more
# This is an unselected part of the about 2,100 reagents, in one setting of the screen. 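Calls flag viability under 80% in either arm, not effects specific to rucaparib; the reference for percent is not stated.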 Reagents against one gene are numbered here. Not given: the 100% reference.
target,reagent no.,technical replicate,"viability, normalised (%)",Outcome
DHX38 (DEAH-box helicase 38),1,1,73.1,active
DHX38 (DEAH-box helicase 38),1,2,86.3,inactive
DHX38 (DEAH-box helicase 38),1,3,80.6,inactive
PLK3 (polo like kinase 3),1,1,91.7,inactive
PLK3 (polo like kinase 3),1,2,97,inactive
PLK3 (polo like kinase 3),1,3,104,inactive
MSH3 (mutS homolog 3),1,1,101,inactive
MSH3 (mutS homolog 3),1,2,87.8,inactive
MSH3 (mutS homolog 3),1,3,93.7,inactive
RTEL1 (regulator of telomere elongation helicase 1),1,1,64.2,active
RTEL1 (regulator of telomere elongation helicase 1),1,2,70.8,active
RTEL1 (regulator of telomere elongation helicase 1),1,3,82.1,inactive
PDE6A (phosphodiesterase 6A),1,1,61.7,active
PDE6A (phosphodiesterase 6A),1,2,45.4,active
PDE6A (phosphodiesterase 6A),1,3,48.5,active
MAPK6 (mitogen-activated protein kinase 6),1,1,93.2,inactive
MAPK6 (mitogen-activated protein kinase 6),1,2,84.6,inactive
MAPK6 (mitogen-activated protein kinase 6),1,3,52.4,active
RBL1 (RB transcriptional corepressor like 1),1,1,51.1,active
RBL1 (RB transcriptional corepressor like 1),1,2,55.9,active
RBL1 (RB transcriptional corepressor like 1),1,3,78.9,active
"ABRAXAS1 (abraxas 1, BRCA1 A complex subunit)",1,1,67,active
"ABRAXAS1 (abraxas 1, BRCA1 A complex subunit)",1,2,79.5,active
"ABRAXAS1 (abraxas 1, BRCA1 A complex subunit)",1,3,121,inactive
"ABRAXAS1 (abraxas 1, BRCA1 A complex subunit)",2,1,84.5,inactive
"ABRAXAS1 (abraxas 1, BRCA1 A complex subunit)",2,2,91.3,inactive
"ABRAXAS1 (abraxas 1, BRCA1 A complex subunit)",2,3,70.9,active
DQX1 (DEAQ-box RNA dependent ATPase 1),1,1,65.2,active
DQX1 (DEAQ-box RNA dependent ATPase 1),1,2,76.5,active
DQX1 (DEAQ-box RNA dependent ATPase 1),1,3,72.6,active
PLK2 (polo like kinase 2),1,1,100,inactive
PLK2 (polo like kinase 2),1,2,78,active
PLK2 (polo like kinase 2),1,3,78.5,active
"HELQ (helicase, POLQ like)",1,1,92.4,inactive
"HELQ (helicase, POLQ like)",1,2,96.5,inactive
"HELQ (helicase, POLQ like)",1,3,78.6,active
"HELQ (helicase, POLQ like)",2,1,81.4,inactive
"HELQ (helicase, POLQ like)",2,2,77.4,active
"HELQ (helicase, POLQ like)",2,3,77.1,active

In a second layout: entries from further up.
| target | reagent no. | technical replicate | viability, normalised (%) | Outcome |
| --- | --- | --- | --- | --- |
| MSH3 (mutS homolog 3) | 1 | 3 | 93.7 | inactive |
| RTEL1 (regulator of telomere elongation helicase 1) | 1 | 1 | 64.2 | active |
